From article PMC6457538

Molecular target: HoLaMa W866F (UniProt P00582)
Assay: stopped-flow tryptophan fluorescence
Conditions: 3.4 uM enzyme, 3.2 uM DNA, 10 mM MgCl2 in DNA syringe, kobs 141 ± 7 s-1; stopped-flow: 50 mM Tris-HCl pH 8.0, 0.5 mM EDTA, 10 mM MgCl2 (DNA syringe), 20 C; recombinant protein

“AAAAAAAAAAAAAAAAAAAAAAAAAAAAAAAAGCGCGCGC / GCGCGCGCTTTTTTT [40mer polyA DNA (40mer template / 15mer primer)]”: binds.

Construct, isoform or probe ends are uncertain for at least one entry.
